Taken from: PubChem BioAssay AID1671195 (Yale University, 2021)

Assay: 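Regulators of LDL receptor activity judged by labelled LDL uptake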 (primary screen)
System: human Huh7 hepatoma cells
Knock-down reagent: siRNA pool against human genes, 18 nM
Timing: about 2 to 2.5 days of knockdown, then 8 h LDL uptake
Conditions: DiI-labelled LDL at 30 µg/ml for 8 h, in lipoprotein-deficient serum medium
Read-out: 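Per-cell DiI-LDL intensity by automated imaging; well means scaled to the plate median and given as a robust z-score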
Reading the numbers: robust z-score: higher = more LDL uptake after knockdown
Active means: 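Active when two or more replicates show a robust z-score above 2 or below -2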
Shown is a random part of about 22,000 reagents. In the full data, about 1,510 (6.9%) are marked active. 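Active includes knockdowns raising or lowering LDL uptake; positive z-scores mean more uptake, negative mean less.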

target gene	robust z-score, replicate 1	robust z-score, replicate 2	robust z-score, replicate 3	call
LOC440859 (retired record)	-0.836	-0.6	-0.878	inactive
RPL6P25	0.738	0.52	0.989	inactive
LOC441860 (retired record)	-0.924	-0.49	-0.502	inactive
KLHDC7A	0.748	1.1	1.51	inactive
TMEM217	0.619	0.538	0.711	inactive
SELENBP1	-0.893	0.785	0.33	inactive
OR6Y1	-0.309	-0.0598	0.228	inactive
SIMC1P1	2.48	3.09	2.87	active
ZNF333	-0.635	-0.71	-1.16	inactive
ST3GAL2	-1.22	-1.36	-1.01	inactive
MAP2	-0.987	-0.273	-0.734	inactive
PRR30	-0.558	-0.36	-0.607	inactive
ZNF300	0.443	1.73	0.727	inactive
IL10RB	0.104	-0.377	0.0173	inactive
TMEM59	0.741	2.21	1.07	inactive
LOC441614 (retired record)	-1.97	-1.68	-1.78	inactive
LOC440782 (retired record)	0.0401	-0.337	0.064	inactive
KRT76	-0.539	-0.0457	-0.889	inactive
MAGEB6	1.07	1.37	1.73	inactive
APOL4	-0.0245	0.315	0.0621	inactive
TAS2R20	-0.0906	0.0977	0.359	inactive
IKZF4	0.573	0.596	1.15	inactive
NRXN3	0.38	-0.167	-0.212	inactive
ZIK1	-0.595	-0.994	-1.11	inactive
PTCH1	0.0992	-1.56	-0.359	inactive
GCNT4	0.988	1.36	1.2	inactive
GSK3A	-0.835	-1.01	0.228	inactive
RBBP7	-0.426	-0.497	-0.843	inactive

A run of entries from the list above, as a working copy:
target gene	robust z-score, replicate 1	robust z-score, replicate 2	robust z-score, replicate 3	call
RPL6P25	0.738	0.52	0.989	inactive
LOC441860 (retired record)	-0.924	-0.49	-0.502	inactive
KLHDC7A	0.748	1.1	1.51	inactive
